Measurements: article PMC10865846
These are yes or no findings as the source states them, for the method shown. Binding seen in cells or lysates may run through a third protein. A yes stands for co-enrichment or nearness to the bait. Other partners may have been found.

Biological target: Strep-NSP8 (SARS-CoV-2 non-structural protein 8) (SARS-CoV-2) (UniProt P0DTD1)
Assay: affinity purification with mass spectrometry

proteasome 26S subunit, ATPase 4 (PSMC4) (from UniProt P43686 1-418)
binding: binds
